These are yes or no findings as the source states them, for the method shown. Some results given as binding are weak or reduced against the parent protein; the word gives no strength.
Experiments:
[1] = target: T1, synthetic zebrafish CYP1A peptide used for immunizations (unconjugated) (zebrafish (D. rerio)); assay: ELISA, plate-bound peptide, hybridoma supernatant
T1 sequence (peptide): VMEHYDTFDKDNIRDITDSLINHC

[2] = target: T2, core vertebrate CYP1A sequence … (conserved CYP1A1 epitope peptide) (all vertebrates listed in Table 1); assay: ELISA on the core peptide
T2 sequence (peptide): IRDITDSLI

[3] = target: T1, synthetic zebrafish CYP1A peptide used for immunizations (unconjugated) (zebrafish (D. rerio)); assay: ELISA on unconjugated peptide; criterion: at least three-fold the OD of an irrelevant antibody
[4] = target: T1, synthetic zebrafish CYP1A peptide used for immunizations (unconjugated) (zebrafish (D. rerio)); assay: ELISA on unconjugated peptide, hybridoma supernatant
[5] = target: T2, core vertebrate CYP1A sequence … (conserved CYP1A1 epitope peptide) (all vertebrates listed in Table 1); assay: summary of the peptide ELISAs
mAb CRC4 [6] = assay: competition ELISA, soluble core peptide against plate-bound zebrafish peptide
mAb CRC4 [7] = assay: competition ELISA, serially diluted core peptide pre-mixed with supernatant, plate coated with zebrafish peptide

Measured: binding

B1: mAb CRC4 (antibody, mouse IgG1, kappa, V domains shown)
VH: QVTLKESGPGILQPSQTLSLTCSFSGFSLSTSGMGVNWIRKPSGKGLEWLAHIFWDDDKRYNPSLKSRLTISKDTSRNQVFLMITSVDTADTATYYCASLAMDYWGQGTSVTVSS
VL: DIVMTQGASSVTVTPGESVSISCRSSKSLLHSNGRTFLYWFLQRPGQSPQLLIYRMSNLASGVPDRVSGSGSGTAFTLRISRVEAEDVGVYYCMQHLEYPFTFGGGTRLELKR
notes: Mouse IgG1 kappa from a hybridoma, used as confluent hybridoma supernatant (nominally 3 ug/mL after 1:10 dilution); also called monoclonal antibody CRC4; CRC4_1
not listed: mAb CRC4 [6] | mAb CRC4 [7]
binds: all other assays above

IRDITDSLI [core vertebrate CYP1A sequence … (conserved CYP1A1 epitope peptide)]
binds: mAb CRC4 [6] | mAb CRC4 [7]

From patent US20240247077A1 (CLEMSON UNIVERSITY RESEARCH FOUNDATION, published 2024)
